These are yes or no findings as the source states them, for the method shown. Binding seen in cells or lysates may run through a third protein. Some results given as binding are weak or reduced against the parent protein; the word gives no strength. Tags and fused reporters may be left off the sequences shown.
Biological target: T1, 3 × Flag-FBXO43 (F-box only protein 43) (UniProt Q4G163)
T1 sequence: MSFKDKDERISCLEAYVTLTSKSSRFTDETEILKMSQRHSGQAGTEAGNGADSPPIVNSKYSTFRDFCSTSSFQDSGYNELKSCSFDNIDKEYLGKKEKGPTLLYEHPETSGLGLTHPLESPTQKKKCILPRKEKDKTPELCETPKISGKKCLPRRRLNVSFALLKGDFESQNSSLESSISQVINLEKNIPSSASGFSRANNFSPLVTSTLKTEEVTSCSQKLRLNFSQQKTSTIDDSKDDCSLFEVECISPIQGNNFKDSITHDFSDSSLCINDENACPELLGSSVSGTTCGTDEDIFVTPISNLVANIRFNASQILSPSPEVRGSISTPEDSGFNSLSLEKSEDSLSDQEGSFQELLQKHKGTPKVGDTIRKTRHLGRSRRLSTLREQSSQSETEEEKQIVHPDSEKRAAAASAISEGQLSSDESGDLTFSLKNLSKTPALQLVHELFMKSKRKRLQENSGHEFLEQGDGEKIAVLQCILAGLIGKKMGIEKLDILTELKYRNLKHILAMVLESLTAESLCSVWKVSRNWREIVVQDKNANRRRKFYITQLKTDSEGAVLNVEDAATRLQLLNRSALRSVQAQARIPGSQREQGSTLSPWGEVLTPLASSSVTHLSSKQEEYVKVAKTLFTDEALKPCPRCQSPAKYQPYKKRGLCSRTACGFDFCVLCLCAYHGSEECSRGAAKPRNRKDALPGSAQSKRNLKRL
Assay: co-IP; lysate (IP buffer) of MDA-MB-231 cells overexpressing 3 × Flag-FBXO43 incubated with Flag beads for 24 h, washed with TBS, eluted with 3 × Flag peptide at 4 °C, western blot

Sequences of proteins named here, by UniProt entry; tags and fusion partners are left off.
UniProt P53396: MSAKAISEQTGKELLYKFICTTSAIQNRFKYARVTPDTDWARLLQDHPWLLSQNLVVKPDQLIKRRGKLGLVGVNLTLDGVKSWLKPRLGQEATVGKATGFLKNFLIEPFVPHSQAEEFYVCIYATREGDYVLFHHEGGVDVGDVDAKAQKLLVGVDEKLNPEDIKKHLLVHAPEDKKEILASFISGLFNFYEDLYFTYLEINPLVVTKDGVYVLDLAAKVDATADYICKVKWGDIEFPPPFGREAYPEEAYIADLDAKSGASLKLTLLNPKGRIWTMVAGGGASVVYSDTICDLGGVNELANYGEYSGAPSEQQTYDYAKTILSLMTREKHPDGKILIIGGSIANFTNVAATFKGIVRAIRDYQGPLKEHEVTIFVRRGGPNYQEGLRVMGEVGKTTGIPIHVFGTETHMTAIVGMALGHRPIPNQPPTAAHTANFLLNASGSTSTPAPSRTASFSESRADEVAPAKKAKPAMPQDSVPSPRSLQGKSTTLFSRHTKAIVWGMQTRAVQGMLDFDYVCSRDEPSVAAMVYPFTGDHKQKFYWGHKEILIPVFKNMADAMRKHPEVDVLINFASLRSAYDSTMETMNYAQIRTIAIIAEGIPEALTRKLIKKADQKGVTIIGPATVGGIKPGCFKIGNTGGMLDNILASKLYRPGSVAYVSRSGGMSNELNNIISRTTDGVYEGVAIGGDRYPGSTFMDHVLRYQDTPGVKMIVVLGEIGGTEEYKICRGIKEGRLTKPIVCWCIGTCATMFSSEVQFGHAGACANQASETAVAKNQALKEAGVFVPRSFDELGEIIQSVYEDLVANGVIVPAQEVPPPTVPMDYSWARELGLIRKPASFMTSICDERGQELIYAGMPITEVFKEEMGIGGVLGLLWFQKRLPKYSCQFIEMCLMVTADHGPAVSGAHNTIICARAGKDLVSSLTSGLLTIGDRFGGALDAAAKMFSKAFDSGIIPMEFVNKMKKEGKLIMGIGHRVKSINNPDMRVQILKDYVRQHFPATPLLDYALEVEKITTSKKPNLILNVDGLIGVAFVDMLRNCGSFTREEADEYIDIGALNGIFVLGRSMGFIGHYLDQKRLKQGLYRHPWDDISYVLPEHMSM
UniProt P12004: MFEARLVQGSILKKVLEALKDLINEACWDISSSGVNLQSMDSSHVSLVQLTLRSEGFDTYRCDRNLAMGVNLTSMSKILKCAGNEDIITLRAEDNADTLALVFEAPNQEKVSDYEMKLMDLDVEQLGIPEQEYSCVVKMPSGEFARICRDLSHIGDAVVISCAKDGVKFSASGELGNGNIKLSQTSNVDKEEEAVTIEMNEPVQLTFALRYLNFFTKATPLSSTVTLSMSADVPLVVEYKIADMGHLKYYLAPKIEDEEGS

binding, binds:
ACLY (from UniProt P53396 1-1101)
PCNA (from UniProt P12004 1-261)
VCP (from UniProt P55072 1-806)

— publication PMC8513237
